Results deposited as PubChem BioAssay AID1224830 (NIAID, 2016).

Test: 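Genes whose knock-down alters the TNF-alpha reporter response to LPS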 (primary screen)
System: human THP-1 monocytic leukaemia cells, TNF dual-luciferase reporter clone, PMA-differentiated to macrophage-like cells
Reagents: siRNA pool against human genes, 50 nM
Duration: LPS for 4 h, given about 3 days after siRNA transfection
Challenge: bacterial LPS (TLR4 ligand), 10 ng/ml
Detection: 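TNF firefly reporter luminescence divided by renilla, normalised to the plate median, then turned into a robust z-score for each replicate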
Scale: TNF reporter robust z-score: higher = stronger TNF reporter response to LPS
Rule for the call: 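Each well counts as active if its z-score is over 2.8 or under -1.5; controls are left without a call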
Shown is one part, drawn at random, of about 18,000 reagents. About 2,900 of them (16%) were called active. 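Calls are made per well; low scores hint the gene aids the LPS response, high scores that it dampens it.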 Repeated entries: four replicate wells of each siRNA pool.

PDIA4 — TNF reporter robust z-score = -0.59; outcome = inactive
PDIA4 — TNF reporter robust z-score = -0.88; outcome = inactive
PDIA4 — TNF reporter robust z-score = -1.18; outcome = inactive
PDIA4 — TNF reporter robust z-score = -0.53; outcome = inactive
SLC25A5 — TNF reporter robust z-score = 0.59; outcome = inactive
SLC25A5 — TNF reporter robust z-score = 1.63; outcome = inactive
SLC25A5 — TNF reporter robust z-score = 0.2; outcome = inactive
SLC25A5 — TNF reporter robust z-score = 1.12; outcome = inactive
KIF2A — TNF reporter robust z-score = -0.16; outcome = inactive
KIF2A — TNF reporter robust z-score = 1.92; outcome = inactive
KIF2A — TNF reporter robust z-score = 0.96; outcome = inactive
KIF2A — TNF reporter robust z-score = 1.16; outcome = inactive
NDUFS1 — TNF reporter robust z-score = -0.26; outcome = inactive
NDUFS1 — TNF reporter robust z-score = -0.03; outcome = inactive
NDUFS1 — TNF reporter robust z-score = -0.09; outcome = inactive
NDUFS1 — TNF reporter robust z-score = 0.77; outcome = inactive
H2AC15 — TNF reporter robust z-score = 0.43; outcome = inactive
H2AC15 — TNF reporter robust z-score = 1.09; outcome = inactive
H2AC15 — TNF reporter robust z-score = 1.11; outcome = inactive
H2AC15 — TNF reporter robust z-score = 0.91; outcome = inactive
TP53TG5 — TNF reporter robust z-score = 0; outcome = inactive
TP53TG5 — TNF reporter robust z-score = -0.28; outcome = inactive
TP53TG5 — TNF reporter robust z-score = -1.02; outcome = inactive
TP53TG5 — TNF reporter robust z-score = 0.06; outcome = inactive
SLC13A4 — TNF reporter robust z-score = -1.8; outcome = active
SLC13A4 — TNF reporter robust z-score = -1.78; outcome = active
SLC13A4 — TNF reporter robust z-score = -2.13; outcome = active
SLC13A4 — TNF reporter robust z-score = -1.64; outcome = active
PDZD4 — TNF reporter robust z-score = -1.5; outcome = inactive
PDZD4 — TNF reporter robust z-score = -1.88; outcome = active
PDZD4 — TNF reporter robust z-score = -1.96; outcome = active
PDZD4 — TNF reporter robust z-score = -1.9; outcome = active
